Measured data: PubChem BioAssay AID652272 (Drosophila RNAi Screening Center, 2013)
The deposit covers about 21,000 reagents; shown is an unselected part of those with a known target gene and a result. Over the whole deposit, 503 (2.4%) were called active. 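Raw plate light values, not normalised; calls rest on replicate z-scores that were not deposited; hits include reporter decreases as well as increases.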 Unmarked entries are inactive. A plus sign joins genes that one reagent is predicted to hit. No sequences are given here. The record does not give: the amount of reagent, the time to read-out.

Assay: 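Genes whose knock-down decreases or increases Hedgehog reporter output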 (primary screen)
Cell system: Drosophila clone 8 (Cl8) cells
Reagent: long dsRNA against Drosophila genes
Read-out: 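Firefly light from a Hedgehog-responsive ptc promoter reporter and Renilla reference light, both read on a plate reader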
Reading the numbers: firefly Hh reporter signal: higher = more ptc reporter light; Renilla reference signal: higher = more Renilla control light
Hit rule: 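Called a hit if the two-replicate mean z-score lies below -2 or above +3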
Meaning of the calls: active = hit: reporter lowered or raised; inactive = not a hit

| gene | amplicon | firefly Hh reporter signal, replicate 1 | firefly Hh reporter signal, replicate 2 | firefly Hh reporter signal, replicate 3 | Renilla reference signal, replicate 1 | Renilla reference signal, replicate 2 |
| --- | --- | --- | --- | --- | --- | --- |
| PKD (Protein Kinase D) | DRSC16200 | 5.62e5 | 93645 | – | 33923 | 2409 |
| CHKov2 (CHK domain ov2) | DRSC14262 | 80720 | 1.17e5 | – | 1229 | 2877 |
| CG7650 | DRSC10898 | 1.94e5 | – | – | 10920 | 5970 |
| CG5773 | DRSC06955 | 89649 | 62989 | – | 2387 | 4552 |
| CG5339 | DRSC04496 | 69266 | 60091 | – | 3285 | 2519 |
| CG43068 | DRSC05538 | 1.38e5 | 2.18e5 | – | 3463 | 9436 |
| CG12817 | DRSC14555 | 92921 | 1.79e5 | – | 2809 | 4551 |
| CG6136 | DRSC15975 | 1.50e5 | 90189 | – | 5652 | 1728 |
| CG9114 | DRSC20155 | 1.13e5 | 1.91e5 | – | 3622 | 8072 |
| CG31031 (retired record) | DRSC13964 | 54560 | 2.93e5 | – | 13216 | 5933 |
| Bka (Bekka) | DRSC02757 | 81130 | 37001 | – | 2144 | 4155 |
| CG1344 | DRSC04837 | 90210 | 72888 | – | 3803 | 2919 |
| Fife | DRSC08262 | 1.36e5 | 1.02e5 | – | 4896 | 3572 |
| Fife | DRSC08409 | 64170 | 64632 | – | 2434 | 4608 |
| Fife | DRSC08499 | 76966 | 32984 | – | 2230 | 2514 |
| mmm (missing minor mitochondria) | DRSC10208 | 52695 | 69825 | – | 6295 | 4940 |
| CG2201 | DRSC03721 | 95744 | 53324 | – | 3355 | 2141 |
| psh (persephone) | DRSC19990 | 87557 | 2.62e5 | – | 2160 | 10390 |
| CSN3 (COP9 signalosome subunit 3) | DRSC11859 | 98569 | 97072 | – | 3396 | 2580 |
| DCP1 (Decapping protein 1) | DRSC04091 | 83208 | 83382 | – | 4180 | 3257 |
| CG34353 | DRSC14493 | 99511 | 1.32e5 | – | 1588 | 4540 |
| CG34353 | DRSC14517 | 91674 | 1.55e5 | – | 3360 | 5537 |
| CG34353 | DRSC14563 | 1.56e5 | 1.34e5 | – | 5888 | 3981 |
| CG34353 | DRSC15837 | 1.30e5 | 1.24e5 | – | 4753 | 3746 |
| Sr-CIV (Scavenger receptor class C, type IV) | DRSC00575 | 1.36e5 | 59168 | – | 3504 | 6464 |
| CG15143 | DRSC02444 | 1.01e5 | 65229 | – | 2456 | 6176 |
| rempA (reduced mechanoreceptor potential A) | DRSC00327 | 82305 | 76582 | – | 1899 | 1913 |
| CG33514 | DRSC08471 | 64418 | 5.91e5 | 55095 | 5729 | 35536 |
| CG33514 | DRSC08472 | 49336 | 56060 | – | 4736 | 3367 |
| Fit1 (Fermitin 1) | DRSC08450 | 92218 | 46009 | – | 4072 | 2333 |
| CG12824 | DRSC06173 | 1.40e5 | 71989 | – | 3595 | 6112 |
| CG8993 | DRSC08616 | 56297 | 55995 | – | 2188 | 3928 |
| CG9692 | DRSC11091 | 1.09e5 | – | – | 2113 | 5604 |
| CG13365 | DRSC17899 | 1.32e5 | 2.94e5 | – | 4753 | 11436 |
| Zmynd10 (Zinc finger MYND-type containing 10) | DRSC09826 | 67683 | 33265 | 57584 | 3681 | 4597 |
| Atg10 + CG18853 + CG12822 | DRSC20757 | 4.52e5 (active) | 1.87e5 | – | 30800 | 5499 |
| CG42245 + MEP-1 | DRSC07993 | 1.17e5 | 2.13e5 | – | 3592 | 10269 |
| CG42245 + MEP-1 | DRSC08274 | 2.29e5 | 1.68e5 | – | 8904 | 6944 |

Targets listed so far whose gene name starts with P or p (2):
| gene | amplicon | firefly Hh reporter signal, replicate 1 | firefly Hh reporter signal, replicate 2 | firefly Hh reporter signal, replicate 3 | Renilla reference signal, replicate 1 | Renilla reference signal, replicate 2 |
| --- | --- | --- | --- | --- | --- | --- |
| PKD (Protein Kinase D) | DRSC16200 | 5.62e5 | 93645 | – | 33923 | 2409 |
| psh (persephone) | DRSC19990 | 87557 | 2.62e5 | – | 2160 | 10390 |

The list goes on:
| gene | amplicon | firefly Hh reporter signal, replicate 1 | firefly Hh reporter signal, replicate 2 | firefly Hh reporter signal, replicate 3 | Renilla reference signal, replicate 1 | Renilla reference signal, replicate 2 |
| --- | --- | --- | --- | --- | --- | --- |
| Gart (GART trifunctional enzyme) | DRSC03481 | 1.06e5 | 81914 | – | 2456 | 6992 |
| CG12609 | DRSC19473 | 78900 | 2.25e5 | – | 579 | 8721 |
| CG30375 | DRSC06834 | 97048 | 45219 | – | 2698 | 4048 |
| mtsh (mitoshell) | DRSC03070 | 84739 | 43159 | – | 2546 | 4656 |
| TfIIFbeta (Transcription factor TFIIFbeta) | DRSC16884 | 1.14e5 | 2.36e5 | – | 3475 | 5712 |
| ZAP3 | DRSC17852 | 72716 | 90848 | – | 1689 | 1892 |
| ZAP3 | DRSC17853 | 87589 | 2.33e5 | – | 2261 | 9216 |
| ZAP3 | DRSC18249 | 68790 | 1.93e5 | – | 1833 | 6816 |
| CG6479 | DRSC10647 | 64903 | 91835 | – | 2581 | 3600 |
| Vrp1 (Verprolin 1) | DRSC04148 | 76336 | 55803 | – | 2698 | 2209 |
| CG3106 | DRSC18279 | 1.03e5 | 79463 | – | 2700 | 1997 |
| robo3 (roundabout 3) | DRSC00374 | 96003 | 72296 | – | 2137 | 1792 |
| robo3 (roundabout 3) | DRSC00375 | 96588 | 48395 | – | 2438 | 1152 |
| robo3 (roundabout 3) | DRSC00684 | 1.30e5 | 80067 | – | 2896 | 1872 |
| Pask (PAS kinase) | DRSC04337 | 1.06e5 | 52907 | – | 4155 | 1956 |
| CG32563 | DRSC19934 | 63977 | 2.36e5 | – | 1728 | 8946 |
| CG5984 | DRSC15930 | 87763 | 1.08e5 | – | 2982 | 3574 |
| l(1)G0320 (lethal (1) G0320) | DRSC18255 | 79298 | 52689 | – | 2129 | 1305 |
| CG33631 | DRSC12763 | 1.97e5 | – | – | 3569 | – |
| Cipc (Clock interacting protein circadian) | DRSC14898 | 1.15e5 | 84952 | – | 2864 | 2596 |
| Cipc (Clock interacting protein circadian) | DRSC14900 | 4.91e5 | 99923 | – | 27293 | 3754 |
| caz (cabeza) | DRSC20317 | 1.36e5 | 7.81e5 | 1.28e5 | 2813 | 4427 |
| CG7484 | DRSC10853 | 81991 | – | – | 3440 | 2455 |
| Pdha (Pyruvate dehydrogenase E1 alpha subunit) | DRSC18413 | 70465 | 1.59e5 | – | 1945 | 6108 |
| CG9368 | DRSC11067 | 55888 | 94304 | – | 2082 | 3581 |
| ghi (ghiberti) | DRSC08985 | 1.76e5 | 4.15e5 | – | 4594 | 16100 |
| Gbeta5 (G protein beta subunit 5) | DRSC17754 | 59271 | 2.59e5 | – | 2406 | 9651 |
| CG3062 | DRSC18572 | 77925 | 1.54e5 | – | 2768 | 6373 |
| Mulk (Multi-substrate lipid kinase) | DRSC02658 | 38614 | 51794 | – | 1850 | 2091 |
| CG13946 | DRSC00364 | 94045 | 74790 | – | 2116 | 1923 |
| CG34049 | DRSC00104 | 5.06e5 | 1.54e5 | – | 24800 | 6123 |
| CG5762 | DRSC15869 | 95520 | 1.10e5 | – | 3479 | 4064 |
| Atg18b (Autophagy-related 18b) | DRSC03108 | 1.01e5 | 62732 | – | 4067 | 2433 |
| CG44838 | DRSC10330 | 50066 | 16133 | – | 2918 | 947 |
| CG44838 | DRSC10371 | 67172 | 42378 | – | 2786 | 1648 |
